The campaign covered roughly 340,000 compounds. About 1,200 (0.35%) were called active. Inconclusive results, whose numbers are uncertain, are shown with a selection of clear calls. Rule as the data show it: active = inhibition above about 50% (passing the limit was not always enough); inconclusive = no clear call, values can overlap the other calls; inactive = below about 31%.
test: blockers of Vif multimerization in cells – imaging, HEK293T, single point, primary screen (AID 602346); conditions: Vif self-association by quenched fluorescence, 24 h, at 7.49 µM, hits give high values

Compound | inhibition
CCCn1nc(C(=O)Nc2nc(-c3ccccn3)cs2)c2ccccc2c1=O | inactive: -2.28%
COC(=O)C(CC(=O)c1ccc(C)cc1)n1nc(C)cc1C (stereo not given) | inactive: -2.37%
CCOC(=O)Cc1csc(NC(=O)CSc2nnnn2-c2ccc(CC)cc2)n1 | inconclusive: 13.4%
COc1cc(OC)nc(Oc2ccccc2C(=O)Oc2cccc(C)c2)n1 | active: 73.9%
COC(=O)CNC(c1ccccc1)c1cc(C)ccc1NC(=O)CNC(=O)OCc1ccccc1 (stereo not given) | inconclusive: 10.5%
Cc1c(NC(=O)CC(O)(C(F)(F)F)C(F)(F)F)c(=O)n(-c2ccccc2)n1C | inconclusive: 46.8%
COC(=O)N1CCCCC1c1cc(C(=O)NCc2cccnc2)no1 (stereo not given) | inconclusive: 25.6%
Cc1cc2nc(Cl)c(Cl)nc2cc1C | active: 67.1%
Cc1ccnc(NC(=O)c2ccc(OCc3c(C)noc3C)cc2)c1 | inactive: 8.56%
COc1ccc(/C=C(/NC(=O)c2ccccc2)C(=O)N2CCCC2)cc1 | inactive: 11.2%
COc1ccc(C)cc1NC(=O)CN(C)C1CCCCC1 | inconclusive: 34.9%
O=C(NCCCn1ccnc1)C(=O)NCC(c1cccnc1)N1CCN(c2ccccc2)CC1 (stereo not given) | active: 53.7%
CC(=O)Nc1ccc(NC(=O)COc2ccc(-c3ccc(C#N)cc3)cc2)cc1 | active: 54.8%
CSc1sccc1/C=C(/C#N)C(=O)c1ccco1 | active: 151%
CC(C)c1nnc(NC(=O)CCS(=O)(=O)c2nc(-c3cccs3)cc(C(F)(F)F)n2)s1 | inconclusive: 44.5%
Fc1ccc(-c2nnc(-c3ccc(F)cc3)o2)cc1 | inactive: 28.8%
CCOc1cc(NC(=S)Nc2ccccc2)c(OCC)cc1NC(=O)c1ccc(OC)cc1 | inactive: -1.8%
O=C(NCCN1CCNCC1)c1ccccc1O | active: 61.7%
Cc1nc(C(=O)N2CCCC(C(=O)c3ccc(Cl)cc3)C2)cs1 (stereo not given) | inconclusive: 28.9%
Cc1ccc(S(=O)(=O)N2CCOCC2)cc1C(=O)Nc1ccc2c(c1)CCC2 | inconclusive: 32.3%
CC(=O)Nc1ccc(NS(=O)(=O)c2ccccc2)cc1 | inconclusive: 32.7%
O=C(NCc1ccccn1)c1cc2cc(Br)ccc2oc1=O | inconclusive: 43.8%
O=C(O)c1ccc2c(c1)NC(=O)C(N1CCCC1)S2 (stereo not given) | inconclusive: 44%

As a short view, part of the list above:
Compound | inhibition
CSc1sccc1/C=C(/C#N)C(=O)c1ccco1 | active: 151%
CC(C)c1nnc(NC(=O)CCS(=O)(=O)c2nc(-c3cccs3)cc(C(F)(F)F)n2)s1 | inconclusive: 44.5%

Remaining list, next part

Compound | inhibition
O=c1cc(N2CCOCC2)c2ccccc2o1 | inconclusive: 38.5%
O=c1c(-c2ccc([N+](=O)[O-])cc2)coc2c(O)c(O)ccc12 | inconclusive: 48%
CCOC(=O)CNC(=O)c1ccc2[nH]c3c(c2c1)CCCC3 | active: 71.9%
CCOC(=O)CCC(=O)NNC(=O)COc1ccc(C(C)C)cc1Br | inconclusive: 19.7%
COc1ccc(OCCOc2ccc(N(C)S(=O)(=O)c3ccccc3)cc2)cc1 | inconclusive: 36.9%
O=C(Nc1ccc([N+](=O)[O-])cc1Cl)c1cc(Cl)ccc1O | inconclusive: 44%
Oc1c(C(c2ccccn2)N2CCCCC2)cc(Cl)c2cccnc12 (stereo not given) | inactive: -2.01%
CC(=O)NC(Cc1c[nH]c2ccccc12)C(=O)NCCc1ccccc1 (stereo not given) | active: 50.4%
Cc1cc(NC(=O)CSc2nc3c(sc4ccccc43)c(=O)n2CCCN2CCOCC2)n[nH]1 | active: 94%
CCOC(=O)C1CCN(C(=O)CSc2n[nH]c(=O)[nH]c2=O)CC1 | inconclusive: 32.2%
Cc1ccc(CNC(=O)Cn2cnc(S(=O)(=O)N3CCC(C)CC3)c2)o1 | inconclusive: 33%
COc1ccc(CN(C(=O)Cn2nnc(-c3ccc(C)o3)n2)C(C(=O)NCC2CCCO2)c2ccco2)cc1 (stereo not given) | active: 71.1%
C#CCOCCOCCOCCNc1nc(N2CCOCC2)nc(N2CCN(C(=O)CCCCCCCCCCNC(=O)[C@@H]([C@H](C)CC)n3cc(CCCCCN)nn3)CC2)n1 | inactive: 3.91%
COc1cc(C2=NOC(C(=O)NCc3ccc(F)cc3)C2)cc(OC)c1OC (stereo not given) | active: 60.2%
Cc1ccc(SCC(=O)NC2CC3CCC(C2)N3C)cc1 (stereo not given) | inconclusive: 48%
COc1cc(C(=O)Nc2ccc3c(c2)ncn3C)cc(OC)c1OC | active: 76.5%
CCOC(=O)N1CCN(C(=O)CN(C)S(=O)(=O)c2ccc(OCC)cc2)CC1 | inactive: -4.74%
Cc1c([N+](=O)[O-])cc(S(=O)(=O)Nc2ccncc2)cc1[N+](=O)[O-] | active: 65.6%
Cn1c(=O)[nH]c(=O)c2c1nc(SCC(N)=O)n2Cc1cccc(Br)c1 | inconclusive: 42.4%
CC1=CC(C)(C)N(C(=O)C(C)N2C(=O)c3ccccc3C2=O)c2ccc(C)cc21 (stereo not given) | inconclusive: 20.3%
CCOc1cccc(C(=O)Nc2ccc(NC(=O)c3cc4ccccc4o3)c(OC)c2)c1 | active: 71.2%
CC(=O)Nc1ccc(-c2csc(-c3cccnc3)n2)cc1 | inconclusive: 44.8%
COc1cccc(-c2cc(C(F)(F)F)nc(-n3ccc([N+](=O)[O-])n3)n2)c1 | inconclusive: 36.6%

Compound | inhibition
CCN1C(=O)CS/C1=N\S(=O)(=O)c1ccc(Cl)cc1 | inactive: 7.06%
Nn1c(SCc2ccc(Br)cc2)nnc1-c1ccccn1 | inactive: -1.46%
CCOC(=O)C1CCCN(S(=O)(=O)Cc2ccccc2Cl)C1 (stereo not given) | inconclusive: 26%
O=C(NCc1ccco1)C1CC(c2cc(C(F)(F)F)cc(C(F)(F)F)c2)=NO1 (stereo not given) | inconclusive: 42.8%
O=C(Nc1ccccc1F)c1ccc(CN2CCc3ccccc3C2)cc1 | inactive: -13.8%
COc1ccc(-n2nc(C(=O)NCC(=O)Nc3cccc(Cl)c3)c3ccccc3c2=O)cc1OC | active: 53.1%
COc1cccc(C(=O)Nc2ccc3c(c2)CCCN3C(=O)c2cccs2)c1OC | inconclusive: 18.6%
C[C@@]12C(=O)N(CC3CCCO3)CC(=O)N1[C@H]1c3cc(Cl)ccc3OC[C@@H]1[C@@H]2c1ccccc1 (stereo not given in full) | inactive: -2.2%
Cc1cc(F)ccc1C(O)c1ncc(-c2ccc3ccccc3c2)[nH]1 (stereo not given) | inconclusive: 37.4%
COCCN(CCOC)C(=O)C12CCC(C)(C(=O)C1)C2(C)C (stereo not given) | inconclusive: 26.3%
O=C(c1cc(-c2ccccc2O)on1)N1CCCCCC1 | active: 74.5%
CCN1/C(=C2/SC(=S)N(NC(C)=O)C2=O)Sc2ccc(OC)cc21 | active: 71.2%
CSCCC(NC(=O)c1ccccc1)C(=O)NCCCn1nc(C)cc1C (stereo not given) | inconclusive: 35%
CCOC(=O)COc1ccc(S(=O)(=O)c2ccc(OCC(=O)OCC)cc2)cc1 | active: 120%
C=C(C)CSc1nnc([C@@H]2CCCN2)o1 | inactive: 3.74%
CCCCNC(=O)NNC(=O)COc1cccc(C)c1C | inactive: 3.89%
COc1ccc(NC(=S)Nc2ccc(OC(F)F)cc2)cn1 | inactive: -5.71%
COC(=O)CN1C(=O)N/C(=C/c2cc(Cl)c(OC)c(OC)c2)C1=O | inconclusive: 26.2%
CC(=O)c1cccc(OCc2cc(C(=O)N3CC4C[C@@H]5CC3C[C@H](C4)C5)no2)c1 | inactive: -7.53%
Cc1ccc(Nc2nc(N)c(C#N)c(CC#N)c2C#N)cc1 | inactive: -8.61%
CC1=CC(=C(C#N)c2nc3ccccc3s2)C=C(C)N1Cc1ccco1 | inconclusive: 48%
Oc1c(C(Nc2nccs2)c2ccc(C(F)(F)F)cc2)ccc2cccnc12 (stereo not given) | inconclusive: 20.1%
COc1ccc2nc(C)cc(NCc3ccc(F)cc3)c2c1 | active: 90.8%

Of the compounds above, nine have a Cl atom.
Compound | inhibition
Cc1cc2nc(Cl)c(Cl)nc2cc1C | active: 67.1%
Cc1nc(C(=O)N2CCCC(C(=O)c3ccc(Cl)cc3)C2)cs1 (stereo not given) | inconclusive: 28.9%
O=C(Nc1ccc([N+](=O)[O-])cc1Cl)c1cc(Cl)ccc1O | inconclusive: 44%
Oc1c(C(c2ccccn2)N2CCCCC2)cc(Cl)c2cccnc12 (stereo not given) | inactive: -2.01%
CCN1C(=O)CS/C1=N\S(=O)(=O)c1ccc(Cl)cc1 | inactive: 7.06%
CCOC(=O)C1CCCN(S(=O)(=O)Cc2ccccc2Cl)C1 (stereo not given) | inconclusive: 26%
COc1ccc(-n2nc(C(=O)NCC(=O)Nc3cccc(Cl)c3)c3ccccc3c2=O)cc1OC | active: 53.1%
C[C@@]12C(=O)N(CC3CCCO3)CC(=O)N1[C@H]1c3cc(Cl)ccc3OC[C@@H]1[C@@H]2c1ccccc1 (stereo not given in full) | inactive: -2.2%
COC(=O)CN1C(=O)N/C(=C/c2cc(Cl)c(OC)c(OC)c2)C1=O | inconclusive: 26.2%

More records follow:

Compound | inhibition
CCOn1c(=O)c(C)[n+]([O-])c2ccccc21 | inconclusive: 39.3%
CC(=O)NC1(C(F)(F)F)C(=O)Nc2c1c(=O)[nH]c(=O)n2CCc1ccccc1 (stereo not given) | inconclusive: 15.5%
Nc1ccc2c(O)cc(S(=O)(=O)O)cc2c1 | inactive: -0.322%
COc1ccc(-c2csc(NC3OC(=O)c4ccccc43)n2)cc1 (stereo not given) | inconclusive: 26.5%
COc1ccc(S(=O)(=O)Nc2ccccc2C)cc1C(=O)N1CCOCC1 | inactive: -0.971%
Cc1cccc(N=Nc2cnc(N)s2)c1 | inactive: -1.13%
N/C(=N/O)c1nc(N2CCCC2)nc(N2CCCC2)n1 | inactive: 0.872%
CCCOc1ccc2ccccc2c1/C=C1\SC(=O)NC1=O | inactive: 7.68%
CCOC(=O)C1(CCc2ccccc2)CCN(Cc2ccn[nH]2)CC1 | inconclusive: 46.1%
Cc1ccc(CC(=O)OCC(=O)c2ccc[nH]2)cc1C | inconclusive: 32%
CS(=O)(=O)Nc1ccccc1C(=O)Nc1ccccc1C(=O)N1CCCC1 | inactive: -3.64%
CC(C)Nc1nc(NCCOc2ccccc2)c2sccc2n1 | inconclusive: 26.8%
CCCCN(C(=O)CSc1nn(-c2ccc(F)cc2)c(=S)s1)c1c(N)n(CCCC)c(=O)[nH]c1=O | inactive: 7.83%
O=c1cc(-c2ccc(O)cc2)oc2cc(O)c(C3OC(CO)C(O)C(O)C3O)c(O)c12 (stereo not given) | inconclusive: 34.8%
CC1CC(C)CN(CCCNC(=O)CN2C(=O)CSc3ccc(S(=O)(=O)N4CCCCC4)cc32)C1 (stereo not given) | inconclusive: 37.2%
COC(=O)c1ccc(N=NN2CCOCC2)cc1 | inactive: 9.21%
Nc1nc(SCC(=O)c2c(N)n(Cc3ccccc3)c(=O)[nH]c2=O)n[nH]1 | inconclusive: 27.2%
CCOC(=O)C1C(=O)NC(C(=O)OCC)(C(=O)OCC)C1CC (stereo not given) | inconclusive: 26.8%
COCCN1C(=O)N(c2ccc(Cl)cc2)C(=O)C1CC(=O)Nc1cc(OC)cc(OC)c1 (stereo not given) | inconclusive: 34.9%
CCOc1ccc(NC(=NCc2ccc3c(c2)OCO3)SC2CC(=O)N(c3ccccc3)C2=O)cc1 (stereo not given) | inconclusive: 30.8%
Cn1c(SCC(=O)c2ccccc2)nnc1C1CC1 | inactive: -1.17%

— PubChem BioAssay AID602346 (Broad Institute, 2012)
